Our source for the log2 fold change values is the supplement of paper PMC12819154, “High-throughput peptide-centric local stability assay extends protein–ligand identification to membrane proteins, tissues and bacteria” (Nature Structural & Molecular Biology, 2025).

Chains of the proteins cited; added tags and fusions are not shown. Lines headed by an entry give the natural chain unless they say otherwise; changes in a name come on top.
UniProt Q14574: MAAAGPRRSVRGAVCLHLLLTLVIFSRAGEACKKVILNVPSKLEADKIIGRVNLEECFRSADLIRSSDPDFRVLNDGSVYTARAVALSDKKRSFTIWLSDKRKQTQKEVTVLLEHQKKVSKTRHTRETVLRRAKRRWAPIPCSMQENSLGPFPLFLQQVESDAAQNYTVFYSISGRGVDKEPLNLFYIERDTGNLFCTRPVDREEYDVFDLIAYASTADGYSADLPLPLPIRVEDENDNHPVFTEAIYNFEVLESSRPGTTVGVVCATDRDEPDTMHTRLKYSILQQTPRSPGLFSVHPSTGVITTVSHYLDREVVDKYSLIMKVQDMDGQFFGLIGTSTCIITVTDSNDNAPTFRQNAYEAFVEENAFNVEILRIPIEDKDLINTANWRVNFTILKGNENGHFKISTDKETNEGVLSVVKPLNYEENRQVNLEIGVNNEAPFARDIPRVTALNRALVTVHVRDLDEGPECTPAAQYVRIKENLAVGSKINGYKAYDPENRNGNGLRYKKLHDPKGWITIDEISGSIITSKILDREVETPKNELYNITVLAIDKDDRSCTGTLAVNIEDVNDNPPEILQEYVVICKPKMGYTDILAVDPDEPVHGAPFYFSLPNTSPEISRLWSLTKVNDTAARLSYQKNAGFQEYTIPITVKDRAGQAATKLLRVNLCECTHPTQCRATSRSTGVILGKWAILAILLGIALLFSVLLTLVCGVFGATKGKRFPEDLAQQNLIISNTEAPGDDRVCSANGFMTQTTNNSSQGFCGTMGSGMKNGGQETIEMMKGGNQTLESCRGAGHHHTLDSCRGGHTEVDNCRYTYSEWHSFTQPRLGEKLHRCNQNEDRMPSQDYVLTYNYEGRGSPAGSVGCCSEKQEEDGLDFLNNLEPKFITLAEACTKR
UniProt Q13474: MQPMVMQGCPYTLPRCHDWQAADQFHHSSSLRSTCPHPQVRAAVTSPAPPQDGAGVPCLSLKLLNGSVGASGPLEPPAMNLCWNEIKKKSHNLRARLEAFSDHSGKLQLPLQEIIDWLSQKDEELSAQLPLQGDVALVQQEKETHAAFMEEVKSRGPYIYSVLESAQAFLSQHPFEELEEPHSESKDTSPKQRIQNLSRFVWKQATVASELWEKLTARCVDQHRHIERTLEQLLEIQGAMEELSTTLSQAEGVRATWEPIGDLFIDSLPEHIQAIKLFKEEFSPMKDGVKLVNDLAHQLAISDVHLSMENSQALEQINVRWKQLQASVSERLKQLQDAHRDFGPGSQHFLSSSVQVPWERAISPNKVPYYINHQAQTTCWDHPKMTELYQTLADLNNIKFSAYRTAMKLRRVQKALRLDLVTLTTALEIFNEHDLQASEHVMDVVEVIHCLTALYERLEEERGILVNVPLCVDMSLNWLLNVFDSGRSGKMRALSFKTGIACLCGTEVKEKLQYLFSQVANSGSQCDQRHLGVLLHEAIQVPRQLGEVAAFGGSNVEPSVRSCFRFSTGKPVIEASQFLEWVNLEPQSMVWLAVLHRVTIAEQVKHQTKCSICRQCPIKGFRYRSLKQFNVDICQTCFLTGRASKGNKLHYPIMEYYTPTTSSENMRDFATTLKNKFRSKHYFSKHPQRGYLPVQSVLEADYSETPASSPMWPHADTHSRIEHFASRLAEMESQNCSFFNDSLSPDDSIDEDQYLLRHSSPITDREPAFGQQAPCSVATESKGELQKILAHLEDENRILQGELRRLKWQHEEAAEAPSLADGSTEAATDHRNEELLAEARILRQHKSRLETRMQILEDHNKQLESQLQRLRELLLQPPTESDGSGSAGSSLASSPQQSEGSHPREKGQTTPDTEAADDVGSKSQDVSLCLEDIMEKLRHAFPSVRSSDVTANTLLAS
UniProt Q13601: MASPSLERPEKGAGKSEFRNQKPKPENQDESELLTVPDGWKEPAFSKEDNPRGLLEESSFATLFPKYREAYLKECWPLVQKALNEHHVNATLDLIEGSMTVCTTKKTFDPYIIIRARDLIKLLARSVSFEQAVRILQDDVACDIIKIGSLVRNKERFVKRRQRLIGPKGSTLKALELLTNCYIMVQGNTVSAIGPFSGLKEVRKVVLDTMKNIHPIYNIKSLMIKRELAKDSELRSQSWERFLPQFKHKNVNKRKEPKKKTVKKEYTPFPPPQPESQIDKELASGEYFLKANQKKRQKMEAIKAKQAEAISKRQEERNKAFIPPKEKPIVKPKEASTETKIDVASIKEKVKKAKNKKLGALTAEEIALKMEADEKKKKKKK
UniProt Q14257: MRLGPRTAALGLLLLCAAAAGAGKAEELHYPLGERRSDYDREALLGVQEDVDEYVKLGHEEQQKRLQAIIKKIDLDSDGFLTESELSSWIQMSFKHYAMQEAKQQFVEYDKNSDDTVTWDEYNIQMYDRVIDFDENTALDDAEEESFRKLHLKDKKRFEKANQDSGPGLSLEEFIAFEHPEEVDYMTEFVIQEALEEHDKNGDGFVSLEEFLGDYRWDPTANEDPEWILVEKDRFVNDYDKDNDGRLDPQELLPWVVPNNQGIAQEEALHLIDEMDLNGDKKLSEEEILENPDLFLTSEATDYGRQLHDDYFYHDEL
UniProt Q13257, whole entry: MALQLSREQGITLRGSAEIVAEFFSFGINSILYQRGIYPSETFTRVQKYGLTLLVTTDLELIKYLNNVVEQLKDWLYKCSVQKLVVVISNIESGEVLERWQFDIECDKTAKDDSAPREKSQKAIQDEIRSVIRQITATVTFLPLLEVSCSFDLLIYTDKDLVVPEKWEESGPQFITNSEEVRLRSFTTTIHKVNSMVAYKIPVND
UniProt Q13619, whole entry: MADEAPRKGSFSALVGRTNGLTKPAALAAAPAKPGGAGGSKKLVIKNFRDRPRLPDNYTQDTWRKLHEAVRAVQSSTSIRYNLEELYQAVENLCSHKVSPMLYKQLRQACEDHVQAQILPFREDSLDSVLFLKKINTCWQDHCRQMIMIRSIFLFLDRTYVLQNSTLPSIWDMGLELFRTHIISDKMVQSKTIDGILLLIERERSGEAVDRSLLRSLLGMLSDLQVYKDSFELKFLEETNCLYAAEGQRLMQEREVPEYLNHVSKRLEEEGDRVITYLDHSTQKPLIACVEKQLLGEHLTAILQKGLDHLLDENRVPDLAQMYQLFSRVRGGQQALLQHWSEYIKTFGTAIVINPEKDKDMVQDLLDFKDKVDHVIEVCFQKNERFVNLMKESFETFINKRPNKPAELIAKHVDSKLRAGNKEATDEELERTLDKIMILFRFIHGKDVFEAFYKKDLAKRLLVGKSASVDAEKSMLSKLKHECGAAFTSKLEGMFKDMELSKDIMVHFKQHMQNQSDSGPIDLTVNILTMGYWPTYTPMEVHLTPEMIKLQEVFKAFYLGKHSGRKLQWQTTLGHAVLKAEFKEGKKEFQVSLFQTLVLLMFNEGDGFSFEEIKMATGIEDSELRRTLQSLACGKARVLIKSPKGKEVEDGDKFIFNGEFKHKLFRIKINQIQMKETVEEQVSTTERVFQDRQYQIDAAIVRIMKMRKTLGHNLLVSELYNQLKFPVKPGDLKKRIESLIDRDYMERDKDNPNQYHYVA
UniProt Q13151: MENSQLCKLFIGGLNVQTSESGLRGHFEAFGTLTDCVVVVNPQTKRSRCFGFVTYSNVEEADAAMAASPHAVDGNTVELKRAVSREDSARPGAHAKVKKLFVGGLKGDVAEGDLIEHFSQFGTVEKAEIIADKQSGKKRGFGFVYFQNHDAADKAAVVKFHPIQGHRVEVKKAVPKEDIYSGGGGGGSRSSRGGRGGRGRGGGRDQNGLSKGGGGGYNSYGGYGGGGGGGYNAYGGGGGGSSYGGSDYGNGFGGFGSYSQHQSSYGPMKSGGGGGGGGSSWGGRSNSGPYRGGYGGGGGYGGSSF
UniProt Q13561, whole entry: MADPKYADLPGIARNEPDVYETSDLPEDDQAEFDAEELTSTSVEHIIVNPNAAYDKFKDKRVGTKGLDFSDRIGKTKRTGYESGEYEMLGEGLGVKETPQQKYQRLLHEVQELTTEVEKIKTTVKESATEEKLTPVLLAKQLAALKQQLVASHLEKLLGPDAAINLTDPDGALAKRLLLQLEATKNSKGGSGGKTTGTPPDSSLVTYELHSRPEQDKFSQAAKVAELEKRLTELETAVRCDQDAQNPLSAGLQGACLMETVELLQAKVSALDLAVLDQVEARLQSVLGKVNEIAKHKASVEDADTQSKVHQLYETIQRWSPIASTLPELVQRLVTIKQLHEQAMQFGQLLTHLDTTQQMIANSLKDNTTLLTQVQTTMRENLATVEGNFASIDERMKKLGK
UniProt Q13404: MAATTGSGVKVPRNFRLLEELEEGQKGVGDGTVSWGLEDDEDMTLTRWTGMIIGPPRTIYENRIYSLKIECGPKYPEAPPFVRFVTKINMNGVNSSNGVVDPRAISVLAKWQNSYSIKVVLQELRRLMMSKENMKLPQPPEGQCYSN
UniProt Q14974, whole entry: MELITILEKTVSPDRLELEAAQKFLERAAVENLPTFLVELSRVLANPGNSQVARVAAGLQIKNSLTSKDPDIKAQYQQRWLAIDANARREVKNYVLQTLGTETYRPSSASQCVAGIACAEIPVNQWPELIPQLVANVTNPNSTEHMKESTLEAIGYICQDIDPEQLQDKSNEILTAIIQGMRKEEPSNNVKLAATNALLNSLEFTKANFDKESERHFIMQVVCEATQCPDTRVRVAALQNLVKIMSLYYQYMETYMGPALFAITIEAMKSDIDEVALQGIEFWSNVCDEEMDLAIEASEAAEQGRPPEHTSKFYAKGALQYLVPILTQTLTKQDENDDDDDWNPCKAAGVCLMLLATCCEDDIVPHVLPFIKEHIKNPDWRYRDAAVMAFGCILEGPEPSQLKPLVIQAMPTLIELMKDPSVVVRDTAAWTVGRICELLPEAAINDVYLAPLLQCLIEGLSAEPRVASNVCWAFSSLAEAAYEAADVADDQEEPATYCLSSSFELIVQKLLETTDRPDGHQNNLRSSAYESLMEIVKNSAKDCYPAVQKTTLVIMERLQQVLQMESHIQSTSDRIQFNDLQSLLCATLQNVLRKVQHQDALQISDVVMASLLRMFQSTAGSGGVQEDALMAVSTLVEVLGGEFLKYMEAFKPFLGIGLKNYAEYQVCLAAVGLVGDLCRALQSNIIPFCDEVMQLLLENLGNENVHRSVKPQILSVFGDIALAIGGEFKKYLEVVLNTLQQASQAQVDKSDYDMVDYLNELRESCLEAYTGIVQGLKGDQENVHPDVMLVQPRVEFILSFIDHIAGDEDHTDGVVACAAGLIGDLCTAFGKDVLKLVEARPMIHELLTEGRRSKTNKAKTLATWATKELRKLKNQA
UniProt Q13637: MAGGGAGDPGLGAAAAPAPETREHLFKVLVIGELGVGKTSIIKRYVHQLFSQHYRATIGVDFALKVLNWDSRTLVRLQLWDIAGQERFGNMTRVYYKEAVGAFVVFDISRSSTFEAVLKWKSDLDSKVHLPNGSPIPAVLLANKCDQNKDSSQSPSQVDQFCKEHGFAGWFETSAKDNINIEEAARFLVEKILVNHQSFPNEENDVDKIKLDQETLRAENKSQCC
UniProt Q14012: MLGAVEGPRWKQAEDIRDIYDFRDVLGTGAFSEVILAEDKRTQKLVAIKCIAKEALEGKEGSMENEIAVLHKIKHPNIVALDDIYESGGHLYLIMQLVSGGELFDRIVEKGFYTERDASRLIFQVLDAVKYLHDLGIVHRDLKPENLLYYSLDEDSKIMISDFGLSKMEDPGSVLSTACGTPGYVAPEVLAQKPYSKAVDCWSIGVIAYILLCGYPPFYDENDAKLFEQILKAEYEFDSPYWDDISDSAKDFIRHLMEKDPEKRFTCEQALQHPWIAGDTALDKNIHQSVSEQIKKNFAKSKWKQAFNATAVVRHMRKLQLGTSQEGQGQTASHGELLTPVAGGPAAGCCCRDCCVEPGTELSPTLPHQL

Some of the results follow. Small differences around the control level are noise.

Compound in the assay: Cc1nc(Nc2ncc(C(=O)Nc3c(C)cccc3Cl)s2)cc(N2CCN(CCO)CC2)n1 [dasatinib]
Nature of the assay: log2 fold change of tryptic peptide abundance, ligand vs vehicle (limited proteolysis) (log2 ratio); higher = more trypsin-susceptible (destabilized). Particulars: ligand concentration: 5 uM; sample: K562 cleared lysate.

Take “UniProt Q14574 (peptide sequence: GAGHHHTLDSCR, peptide start residue: 799)”: the log2 fold change was -0.384.

For the target “UniProt Q13474 (peptide sequence: MQILEDHNK, peptide start residue: 3332)”, the log2 fold change was -0.2.

As to “KRR1 (peptide sequence: LGALTAEEIALK, peptide start residue: 358) (UniProt Q13601)”, the log2 fold change was 0.0885. As for “RCN2 (peptide sequence: QLHDDYFYHDEL, peptide start residue: 306) (UniProt Q14257)”, the log2 fold change is -0.0599. Turning to “MAD2L1 (peptide sequence: WQFDIECDKTAK, peptide start residue: 100) (UniProt Q13257)”, the log2 fold change was -0.242.

Regarding “CUL4A (peptide sequence: DMELSKDIMVHFK, peptide start residue: 497) (UniProt Q13619)”, the log2 fold change is -0.424.

On to “MYO9B (peptide sequence: PGQLERPTSLALDSR, peptide start residue: 1245) (UniProt Q13459)”, for which the log2 fold change came to 0.465. Regarding “HNRNPA0 (peptide sequence: GFGFVYFQNHDAADK, peptide start residue: 140) (UniProt Q13151)”, the log2 fold change came to 0.135.

On to “DCTN2 (peptide sequence: TTGTPPDSSLVTYELHSRPEQDK, peptide start residue: 195) (UniProt Q13561)”, for which the log2 fold change amounted to 0.226.

For the target “UBE2V1 (peptide sequence: LLEELEEGQK, peptide start residue: 15) (UniProt Q13404)”, the log2 fold change worked out at 0.1. Regarding “KPNB1 (peptide sequence: DTAAWTVGR, peptide start residue: 426) (UniProt Q14974)”, the log2 fold change was -0.206.

Regarding “RAB32 (peptide sequence: VLVIGELGVGK, peptide start residue: 28) (UniProt Q13637)”, the log2 fold change turned out to be 0.484.

On to “CAMK1 (peptide sequence: QAFNATAVVR, peptide start residue: 305) (UniProt Q14012)”, for which the log2 fold change was determined as 0.0726.
